This passage reports z-score results from PubChem BioAssay AID1508600 (Functional Genomics Laboratory (NCATS/FGL), 2020).

The campaign covered roughly 53,000 sequences. About 3,700 (7%) were called active.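 The calls were made as follows: active = gene knockdowns whose robust z-score for IL-1 alpha signal is at least 2 or at most -2, so actives lie on both sides; inactive = the rest.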 This is one part of the list.

The nature of this assay: Components of the Cytosolic LPS Sensing Pathway: Gene Identification via Genome-wide siRNA Screen.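 Also: robust z of the log signal after scaling to non-targeting control siRNA wells of the plate.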 The settings on record: RAW264.7 macrophages, IL-1a HTRF, actives lie on both sides, screened at 100 nM (by protocol), cells primed 5 h with Pam3CSK4 first. The method, boiled down:
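Using IL-1a HTRF as read-out, the screen measured release from RAW264.7 cells after 48h siRNA knockdown (100 nM), 5 h Pam3CSK4 priming and 24 h cytosolic LipidA. Values were expressed relative to negative-control wells as robust z-scores.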
On the technique in general: TR-FRET usually uses a lanthanide donor and a delayed reading to cut background.
For the sequence CCUAGUAGUUGACCAUAUATT against Dcdc5, the z-score is inactive: -1.32.

For the sequence GGGACAACAUGGAUUCAAGTT against Sult1c2, the z-score is inactive: 0.685.

Consider GGCUAUUGAUUCCUAUUAGTT against Usp54, for which the z-score was inactive: -0.576.

Regarding GGAUUGGUAGCUUAUGUGGTT against Hnrnpr, the z-score was inactive: -1.91. Then GCAAUGACAGAACAUACAGTT against Cts7, with inactive: 1.67; and GCAAGAAUCCUGGCUAUAUTT against Phb2, with inactive: 0.0195.

For GGGUACAAUAUCCUUAAGUTT against Nfxl1, the z-score is inactive: 0.248. For the sequence GGAGCAGCUUCUGCUUUCUTT against Senp1, the z-score was inactive: 1.78. Turning to GGAAGUUCGUUAUUAGGAUTT against Disp2, the z-score is inactive: -0.452. With GGAGAUGGUGGAAUUCUCUTT against Atp5a1, the z-score was inactive: -0.0311. For the sequence GGAUUAUCCCGACUAUAUGTT against Tgds, the z-score was inactive: 0.139. As to GCGAUUAAGUCUGAAUUGUTT against Cd93, the z-score is inactive: 0.425. Take GGGAGAUUGCAUUUGGAGCTT against Olfr678: the z-score is inactive: 0.317. In the case of GGAGAGAUGUUUAUGAAUATT against Slc6a14 it was inactive: -0.429; in that of CCUUGGAAUUCAUCAACGGTT against Zfp943, inactive: -0.335; in that of GGCACACCACUACACCAUCTT against Syk, inactive: -0.96. Then GGAACAGACACAGACACAGTT against Phxr5, with inactive: -0.647; and GGAUAUGGUUGGUCAAAAUTT against Cdh7, with inactive: 1.15.

Consider CCAAGGUUCCAAAACUGAUTT against Pglyrp4, for which the z-score is inactive: -0.102. In the case of GGUUGAGUGUUUGAAGUCATT against Slc38a11, the z-score was inactive: -1.9. In the case of GCCUGUUGGGUGUUCUUCCTT against Olfr834 it was inactive: -0.272; in that of CCAAUAAGGCAUAUGUUUUTT against Scarb2, inactive: -0.608. For CCUCUUCGCAUCAACACUGTT against Car10, the z-score is inactive: -0.186. In the case of GGUUGGAAAUGACUAAUAATT against Slco6c1 it was inactive: -1.01; in that of GGCCAGGUACUAUACACAUTT against Tmem145, inactive: 0.997. Regarding CGAACUGCCUUCCUUAAUATT against H1f2, the z-score is inactive: -1.26. In the case of GGAGCUCGUUGACAAGAAGTT against Bpifb5 it was inactive: 1.24. In the case of GGAAGAACUAACAUUUGAGTT against Myo9a it was inactive: -0.289. Then “GGUUACAAUCUGAAGUGACTT against 4931429L15Rik”, with inactive: -1.07; and GGCUUUAGGAAGAUCCUUGTT against Ilf2, with inactive: -0.538; and GGGUGCAAGGGCACCAAAATT against Wfdc15a, with inactive: -0.267. Take GGAGAUCCUAGUGAAUGUGTT against Kcng4: the z-score is inactive: -0.441. Consider GGUGAUGUCUCGGUACCCATT against Mvk, for which the z-score is inactive: -0.0733. Regarding CCAAUAAAAGUGCACACCUTT against Actb, the z-score is active: 2. Then GGCUCUAUCACUGAGUCACTT against Hsd17b14, with inactive: -0.0378; and GCAUCAUGAGUCCCAUUCUTT against Olfr385, with inactive: -0.276; and GGCAUCUCCAAGAUGUUUCTT against Plekhg4, with inactive: -0.205.

Regarding GGCUGAAGAUUUACUUCUATT against Bbs9, the z-score was inactive: 0.267. In the case of CCAGAAGAGUACUGUUUUATT against Tpm4 it was active: 2.17. As for GGACUUAGGAGCCAAAAUUTT against Afg3l1, the z-score is inactive: 0.677.

GGCUAUGCUGCCUACUACUTT against Bmp7: the z-score was active: -2.63.

With GGUAGAAGAGAGUAUCAACTT against Commd1, the z-score is inactive: 1.28. In the case of GGAAAUCCUUACGAUGCUGTT against Coprs it was inactive: 1.01. In the case of GGCUGUGUAAGGAAGGGCUTT against Hjv, the z-score is inactive: 0.501. Then GGAGUUAAAUUUAGAGAACTT against Shoc2, with inactive: -0.043; and GGUACCUUGCUUUUAUUUUTT against Rdh13, with inactive: 0.182; and GGAAAUUGUUAAGCAGUGUTT against Zc3hav1, with inactive: -0.506.

GGCAUACUCAUGGAAUAACTT against Selp: the z-score was inactive: -0.244. GGAGGGUAUUAGUGCACUGTT against Ptpn1: the z-score was inactive: -0.111.

In the case of GGAGAAGAAAGUGGAGGCATT against Rplp1, the z-score was inactive: -0.403. As to GGAUAUGCACAGACCACCCTT against Ewsr1, the z-score was inactive: -1.38. In the case of GGGACUAUCCACUCACUUUTT against Olfr981 it was inactive: 0.419.

Turning to GGCAGAGUUUGAAAAGAUCTT against Parp16, the z-score was inactive: -1.42. Consider GCACUUUUCUAGGAGCAGCTT against Arx, for which the z-score was inactive: 1.16. In the case of GGUGGCAAAACAGUCUGUATT against Olfr1457 it was inactive: 1.34; in that of GGUGCUCAUUGCUGUUUCUTT against Tcaf2, inactive: -1.11; in that of CCAUCACGAGUGAAUUCGATT against Olfr945, active: -2.13.

On to GGAAGAAAGAAAGAACAGATT against Rgs7bp, for which the z-score was inactive: 0.385. For CCAAGCAGAAAAGUUCCUUTT against Tcf3, the z-score is inactive: 0.767. Regarding CCCUAAUCACAUUUUGUGATT against Socs5, the z-score was inactive: -0.0146. For the sequence GGUUGUUCAGUUCAAACUCTT against Dbt, the z-score was inactive: 1.35. For the sequence GCUCUGCAUGACCUUACCUTT against Ugt2b1, the z-score was inactive: 0.245. For GGAGAAUACCAGCAACAUCTT against Golga5, the z-score is inactive: 0.328. Consider GGACAGAAACUAAUUGCAUTT against Tmc5, for which the z-score was inactive: 0.278. Then GGCGUGUUGAGACAAUCCUTT against Lkaaear1, with inactive: -0.815. Turning to GGAAGUUGUAUAAGCCAGGTT against Cyb5d2, the z-score was inactive: -0.197. For the sequence GGAUGUUCCAUUUCUAAGCTT against Zfp30, the z-score was active: -3.76. Then CCCAUCCUAUGUGCCCUAUTT against Krtap13-1, with inactive: -1.91.
